This is one part of the list.
Key:
Assay in all cases: log2 fold change, soluble protein after heating vs DMSO (PISA); higher = thermal stabilisation; K562 lysate, 10 uM; active = over 0.2 and 3.5 SD of the protein, either way, in both replicates (recomputed)
[1] = compound: Cc1cn(-c2cc(NC(=O)c3ccc(C)c(Nc4nccc(-c5cccnc5)n4)c3)cc(C(F)(F)F)c2)cn1 [nilotinib]
Outline: (§1)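 A 30 min treatment with 10 μM compound was applied to crude K562 extract at 1 mg/mL protein in PBS pH 7.4 with 1 mM MgCl2. Heating for 3 min spanned 48°C-58°C, after which aliquots were pooled, adjusted to 0.5% NP-40 at 4°C and spun at 21,000xg for 90 min. TMTpro 16plex LC-MS/MS of the supernatant, with channel sums equalised, gave values recorded as log-two fold change in thermal stability against solvent controls, from duplicates.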

Protein sequences, listed by entry. Tags and fused reporters are not part of them. Lines headed by an entry give the natural chain unless they say otherwise; changes in a name come on top.
UniProt Q9NUJ3: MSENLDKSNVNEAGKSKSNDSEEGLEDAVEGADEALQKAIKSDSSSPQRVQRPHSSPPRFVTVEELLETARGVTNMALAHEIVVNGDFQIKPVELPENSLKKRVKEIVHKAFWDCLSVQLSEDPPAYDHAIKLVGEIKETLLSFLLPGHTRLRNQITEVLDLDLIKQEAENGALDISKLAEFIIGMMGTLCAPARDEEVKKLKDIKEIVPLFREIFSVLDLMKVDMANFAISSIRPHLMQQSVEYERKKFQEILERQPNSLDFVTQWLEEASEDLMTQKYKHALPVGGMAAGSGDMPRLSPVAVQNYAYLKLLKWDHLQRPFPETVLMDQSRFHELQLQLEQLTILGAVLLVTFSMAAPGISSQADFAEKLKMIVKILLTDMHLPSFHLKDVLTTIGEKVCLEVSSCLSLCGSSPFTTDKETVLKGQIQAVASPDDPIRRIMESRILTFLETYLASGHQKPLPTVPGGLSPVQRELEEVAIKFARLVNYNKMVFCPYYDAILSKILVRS
UniProt Q9HA65: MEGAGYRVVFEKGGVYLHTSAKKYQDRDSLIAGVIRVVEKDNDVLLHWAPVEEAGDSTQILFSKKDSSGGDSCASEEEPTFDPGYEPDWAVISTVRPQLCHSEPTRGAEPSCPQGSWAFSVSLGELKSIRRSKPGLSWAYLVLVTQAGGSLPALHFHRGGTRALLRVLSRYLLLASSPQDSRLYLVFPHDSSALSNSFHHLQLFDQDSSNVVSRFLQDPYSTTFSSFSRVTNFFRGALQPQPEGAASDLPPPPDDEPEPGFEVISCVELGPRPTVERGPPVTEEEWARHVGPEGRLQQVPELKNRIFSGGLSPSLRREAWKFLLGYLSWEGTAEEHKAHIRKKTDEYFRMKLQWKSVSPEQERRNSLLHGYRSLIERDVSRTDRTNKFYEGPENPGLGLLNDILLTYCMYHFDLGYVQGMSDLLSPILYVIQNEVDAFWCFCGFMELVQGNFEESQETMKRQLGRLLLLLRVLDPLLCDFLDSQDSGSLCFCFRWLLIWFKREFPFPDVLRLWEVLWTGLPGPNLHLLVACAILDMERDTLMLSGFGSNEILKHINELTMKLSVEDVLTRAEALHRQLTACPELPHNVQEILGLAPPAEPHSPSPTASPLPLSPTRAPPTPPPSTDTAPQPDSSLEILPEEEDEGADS
UniProt Q9UGI8: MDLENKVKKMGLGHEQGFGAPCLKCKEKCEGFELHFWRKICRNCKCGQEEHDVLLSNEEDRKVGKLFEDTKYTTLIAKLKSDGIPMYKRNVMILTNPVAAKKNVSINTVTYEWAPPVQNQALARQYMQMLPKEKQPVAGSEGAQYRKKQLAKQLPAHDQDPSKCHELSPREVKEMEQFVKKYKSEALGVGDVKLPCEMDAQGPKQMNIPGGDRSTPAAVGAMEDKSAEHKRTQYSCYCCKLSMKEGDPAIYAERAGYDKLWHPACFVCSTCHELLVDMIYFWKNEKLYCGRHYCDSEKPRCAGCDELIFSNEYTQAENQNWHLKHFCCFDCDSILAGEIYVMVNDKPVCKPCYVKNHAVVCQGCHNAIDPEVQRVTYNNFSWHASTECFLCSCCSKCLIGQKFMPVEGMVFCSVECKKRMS
UniProt Q8NFU7: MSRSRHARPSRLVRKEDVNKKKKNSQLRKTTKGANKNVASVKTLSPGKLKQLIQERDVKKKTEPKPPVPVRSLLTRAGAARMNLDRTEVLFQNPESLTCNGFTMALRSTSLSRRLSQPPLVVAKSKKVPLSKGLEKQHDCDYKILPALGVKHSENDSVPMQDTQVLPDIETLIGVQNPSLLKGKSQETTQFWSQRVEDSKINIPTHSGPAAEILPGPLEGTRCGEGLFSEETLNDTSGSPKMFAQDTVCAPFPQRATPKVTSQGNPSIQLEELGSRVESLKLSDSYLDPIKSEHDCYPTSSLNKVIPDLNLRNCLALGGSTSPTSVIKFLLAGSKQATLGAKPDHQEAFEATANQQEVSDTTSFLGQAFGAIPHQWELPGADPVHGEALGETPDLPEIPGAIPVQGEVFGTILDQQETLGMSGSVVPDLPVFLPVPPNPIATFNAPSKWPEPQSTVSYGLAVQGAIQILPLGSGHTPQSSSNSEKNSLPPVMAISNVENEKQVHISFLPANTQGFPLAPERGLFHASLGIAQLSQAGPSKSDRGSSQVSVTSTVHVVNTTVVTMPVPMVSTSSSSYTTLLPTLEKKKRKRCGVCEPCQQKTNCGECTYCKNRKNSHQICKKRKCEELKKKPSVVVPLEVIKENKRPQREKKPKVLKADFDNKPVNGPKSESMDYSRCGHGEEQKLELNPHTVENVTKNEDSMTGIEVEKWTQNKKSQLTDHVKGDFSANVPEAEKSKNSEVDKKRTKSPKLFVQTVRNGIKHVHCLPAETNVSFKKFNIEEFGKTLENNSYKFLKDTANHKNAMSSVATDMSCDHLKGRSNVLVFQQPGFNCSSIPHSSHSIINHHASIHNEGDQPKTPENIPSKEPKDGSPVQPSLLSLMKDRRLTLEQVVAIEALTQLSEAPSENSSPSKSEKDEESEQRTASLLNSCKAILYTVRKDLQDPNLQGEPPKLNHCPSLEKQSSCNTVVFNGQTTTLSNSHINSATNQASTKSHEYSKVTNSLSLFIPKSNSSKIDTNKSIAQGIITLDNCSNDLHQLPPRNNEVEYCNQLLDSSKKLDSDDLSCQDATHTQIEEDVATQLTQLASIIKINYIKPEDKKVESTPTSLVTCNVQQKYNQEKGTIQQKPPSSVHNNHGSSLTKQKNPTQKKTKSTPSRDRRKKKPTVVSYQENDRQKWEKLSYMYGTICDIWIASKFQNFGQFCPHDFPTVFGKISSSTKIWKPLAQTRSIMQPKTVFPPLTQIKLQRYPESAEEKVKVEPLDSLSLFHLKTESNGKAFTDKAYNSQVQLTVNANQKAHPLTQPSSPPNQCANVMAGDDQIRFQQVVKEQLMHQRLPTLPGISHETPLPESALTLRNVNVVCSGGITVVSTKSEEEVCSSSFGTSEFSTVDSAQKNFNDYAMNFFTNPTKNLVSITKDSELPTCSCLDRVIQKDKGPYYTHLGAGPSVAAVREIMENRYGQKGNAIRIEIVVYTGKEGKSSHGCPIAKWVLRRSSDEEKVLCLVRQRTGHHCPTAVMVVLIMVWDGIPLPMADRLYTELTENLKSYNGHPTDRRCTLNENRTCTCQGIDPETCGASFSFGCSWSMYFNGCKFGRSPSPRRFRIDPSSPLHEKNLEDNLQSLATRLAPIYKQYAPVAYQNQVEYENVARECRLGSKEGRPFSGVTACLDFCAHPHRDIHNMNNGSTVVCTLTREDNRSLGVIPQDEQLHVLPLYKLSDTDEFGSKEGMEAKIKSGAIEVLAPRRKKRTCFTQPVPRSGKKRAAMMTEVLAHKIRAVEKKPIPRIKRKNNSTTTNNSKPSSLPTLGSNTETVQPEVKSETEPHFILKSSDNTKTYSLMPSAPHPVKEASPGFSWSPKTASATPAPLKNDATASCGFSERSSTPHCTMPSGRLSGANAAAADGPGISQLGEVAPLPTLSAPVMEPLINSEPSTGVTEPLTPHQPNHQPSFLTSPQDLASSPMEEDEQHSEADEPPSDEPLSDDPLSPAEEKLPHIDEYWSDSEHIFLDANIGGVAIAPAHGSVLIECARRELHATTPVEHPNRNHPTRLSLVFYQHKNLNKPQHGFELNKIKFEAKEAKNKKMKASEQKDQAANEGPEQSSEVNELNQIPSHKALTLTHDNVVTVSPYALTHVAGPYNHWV
UniProt Q9NYB0: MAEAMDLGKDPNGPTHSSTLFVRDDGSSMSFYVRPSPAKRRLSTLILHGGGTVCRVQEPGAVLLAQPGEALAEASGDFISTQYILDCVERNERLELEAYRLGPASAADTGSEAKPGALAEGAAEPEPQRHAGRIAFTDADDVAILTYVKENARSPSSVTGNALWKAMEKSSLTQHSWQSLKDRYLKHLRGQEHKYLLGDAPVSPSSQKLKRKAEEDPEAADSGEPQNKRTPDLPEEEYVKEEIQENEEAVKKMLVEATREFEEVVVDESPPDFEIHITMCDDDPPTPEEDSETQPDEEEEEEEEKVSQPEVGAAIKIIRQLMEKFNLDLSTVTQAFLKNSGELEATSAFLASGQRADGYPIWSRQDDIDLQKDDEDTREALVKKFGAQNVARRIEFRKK
UniProt Q96BW9: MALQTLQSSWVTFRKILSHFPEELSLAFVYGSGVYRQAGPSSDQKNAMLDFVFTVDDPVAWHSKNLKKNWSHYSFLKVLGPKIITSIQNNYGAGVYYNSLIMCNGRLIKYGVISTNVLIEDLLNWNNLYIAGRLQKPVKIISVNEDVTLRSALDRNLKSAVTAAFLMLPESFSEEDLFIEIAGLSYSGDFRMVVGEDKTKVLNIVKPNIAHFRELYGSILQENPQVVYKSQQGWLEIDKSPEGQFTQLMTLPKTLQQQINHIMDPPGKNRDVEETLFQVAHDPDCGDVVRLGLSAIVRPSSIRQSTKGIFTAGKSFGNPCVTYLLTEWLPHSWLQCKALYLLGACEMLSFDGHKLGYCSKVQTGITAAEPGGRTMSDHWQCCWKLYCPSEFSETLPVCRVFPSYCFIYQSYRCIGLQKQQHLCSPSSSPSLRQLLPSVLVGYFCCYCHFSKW
UniProt Q8IWB9: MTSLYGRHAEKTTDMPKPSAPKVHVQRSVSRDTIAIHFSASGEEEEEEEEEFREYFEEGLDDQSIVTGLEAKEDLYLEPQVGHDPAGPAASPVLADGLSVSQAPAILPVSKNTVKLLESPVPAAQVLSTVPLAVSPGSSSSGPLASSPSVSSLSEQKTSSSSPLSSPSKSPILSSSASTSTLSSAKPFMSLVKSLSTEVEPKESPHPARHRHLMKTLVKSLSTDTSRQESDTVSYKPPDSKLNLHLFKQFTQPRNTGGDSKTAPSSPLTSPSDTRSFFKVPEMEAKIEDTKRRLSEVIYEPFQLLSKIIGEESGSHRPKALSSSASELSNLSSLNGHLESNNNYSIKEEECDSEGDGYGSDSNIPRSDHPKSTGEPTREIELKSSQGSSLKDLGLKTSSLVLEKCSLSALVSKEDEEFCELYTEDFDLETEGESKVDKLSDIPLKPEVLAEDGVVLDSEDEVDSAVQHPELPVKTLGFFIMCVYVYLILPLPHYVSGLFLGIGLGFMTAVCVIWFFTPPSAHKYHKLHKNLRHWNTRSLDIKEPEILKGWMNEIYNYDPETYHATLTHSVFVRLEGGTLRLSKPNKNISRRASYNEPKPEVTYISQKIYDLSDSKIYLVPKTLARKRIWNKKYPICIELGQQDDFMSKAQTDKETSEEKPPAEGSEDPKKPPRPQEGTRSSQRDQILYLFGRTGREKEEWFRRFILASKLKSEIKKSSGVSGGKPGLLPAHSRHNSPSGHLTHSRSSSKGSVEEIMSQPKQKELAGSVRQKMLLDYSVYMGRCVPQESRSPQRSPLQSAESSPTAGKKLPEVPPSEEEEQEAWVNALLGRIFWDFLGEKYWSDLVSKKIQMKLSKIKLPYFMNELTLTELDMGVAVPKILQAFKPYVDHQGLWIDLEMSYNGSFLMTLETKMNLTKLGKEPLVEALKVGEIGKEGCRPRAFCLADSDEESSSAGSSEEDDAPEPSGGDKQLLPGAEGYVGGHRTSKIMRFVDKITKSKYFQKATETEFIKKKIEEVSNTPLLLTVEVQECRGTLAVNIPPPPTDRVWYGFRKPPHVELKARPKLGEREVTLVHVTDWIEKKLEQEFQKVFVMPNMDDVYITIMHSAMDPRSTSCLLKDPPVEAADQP
UniProt A2RTX5: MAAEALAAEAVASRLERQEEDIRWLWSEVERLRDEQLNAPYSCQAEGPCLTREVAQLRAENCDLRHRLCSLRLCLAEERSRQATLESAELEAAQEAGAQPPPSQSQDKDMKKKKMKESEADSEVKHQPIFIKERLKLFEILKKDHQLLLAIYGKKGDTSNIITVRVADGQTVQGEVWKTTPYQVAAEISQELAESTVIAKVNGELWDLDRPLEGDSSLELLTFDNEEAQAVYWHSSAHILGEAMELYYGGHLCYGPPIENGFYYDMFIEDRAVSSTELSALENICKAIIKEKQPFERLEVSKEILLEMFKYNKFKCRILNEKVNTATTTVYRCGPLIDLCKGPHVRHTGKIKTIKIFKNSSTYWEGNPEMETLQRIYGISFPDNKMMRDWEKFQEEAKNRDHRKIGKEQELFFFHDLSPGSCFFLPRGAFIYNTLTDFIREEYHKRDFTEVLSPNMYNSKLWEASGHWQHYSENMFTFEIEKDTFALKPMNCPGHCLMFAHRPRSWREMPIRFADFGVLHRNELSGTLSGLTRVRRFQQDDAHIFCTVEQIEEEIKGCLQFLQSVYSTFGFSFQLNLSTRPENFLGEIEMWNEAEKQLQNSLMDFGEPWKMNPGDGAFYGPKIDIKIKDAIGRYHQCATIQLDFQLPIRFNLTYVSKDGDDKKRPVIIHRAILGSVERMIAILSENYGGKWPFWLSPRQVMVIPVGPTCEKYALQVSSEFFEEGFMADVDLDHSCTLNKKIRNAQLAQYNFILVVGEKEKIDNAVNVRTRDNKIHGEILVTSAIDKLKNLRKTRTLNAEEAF

[2] = compound: Cc1nc(Nc2n[nH]c3c2CN(C(=O)N[C@H](CN(C)C)c2ccccc2)C3(C)C)c2sccc2n1
Outline: as §1

[3] = compound: Cc1nc(Nc2ncc(C(=O)Nc3c(C)cccc3Cl)s2)cc(N2CCN(CCO)CC2)n1 [dasatinib]
Outline: as §1

[4] = compound: Cc1ncc(-c2ccnc(Nc3ccc(S(C)(=O)=O)cc3)n2)n1C(C)C
Outline: as §1

[5] = compound: Cn1cc(-c2ccc3c(c2)CCN3C(=O)Cc2cccc(C(F)(F)F)c2)c2c(N)ncnc21
Outline: as §1

[6] = compound: Cn1cc(CNCC2CCN(c3ncc(C(=O)NO)cn3)CC2)c2ccccc21 [quisinostat]
Outline: as §1

[7] = compound: Cn1cncc1[C@@](N)(c1ccc(Cl)cc1)c1ccc2c(c1)c(-c1cccc(Cl)c1)cc(=O)n2C [tipifarnib]
Outline: as §1

[8] = compound: NC(=O)Nc1cc(-c2cccc(F)c2)sc1C(=O)N[C@H]1CCCNC1
Outline: as §1

[9] = compound: NC(=O)c1cnc(N[C@@H]2CCCC[C@@H]2N)nc1Nc1cccc(-n2nccn2)c1
Outline: as §1

[10] = compound: NC1(c2ccc(-c3nc4ccn5c(=O)[nH]nc5c4cc3-c3ccccc3)cc2)CCC1
Outline: as §1

Measured: log2 fold change

TCP11L1 (UniProt Q9NUJ3)
inactive: [1] 0.062 | [2] -0.114 | [3] -0.034 | [4] -0.035 | [5] 0.01 | [6] -0.055 | [7] -0.003 | [8] 0.051 | [9] -0.022 | [10] 0.028

TARBP1 (UniProt Q13395)
inactive: [1] -0.045 | [2] 0.036 | [3] -0.03 | [4] -0.003 | [5] 0.046 | [6] -0.158 | [7] 0.007 | [8] 0.142 | [9] 0.007 | [10] -0.021

TCEA1 (UniProt P23193)
inactive: [1] -0.004 | [2] 0.021 | [3] 0.022 | [4] 0.043 | [5] -0.021 | [6] 0.058 | [7] 0 | [8] -0.028 | [9] -0.019 | [10] 0.002

TBC1D17 (UniProt Q9HA65)
inactive: [1] 0.042 | [2] -0.043 | [3] 0.001 | [4] -0.006 | [5] -0.032 | [6] 0.039 | [7] 0.025 | [8] 0.007 | [9] 0.001 | [10] 0.024

TEPSIN, A0A1B0GV70
inactive: [1] 0.03 | [2] 0.019 | [3] -0.008 | [4] 0.094 | [5] -0.005 | [6] 0.099 | [7] -0.129 | [8] -0.045 | [9] 0.012 | [10] 0.062

TES (UniProt Q9UGI8)
inactive: [1] 0.011 | [2] -0.005 | [3] 0.023 | [4] 0.017 | [5] -0.001 | [6] 0.02 | [7] 0.011 | [8] -0.026 | [9] 0.001 | [10] -0.008

TAF9 (UniProt Q16594)
inactive: [1] -0.043 | [2] 0.049 | [3] -0.017 | [4] -0.003 | [5] 0.021 | [6] -0.055 | [7] -0.029 | [8] 0.013 | [9] 0.084 | [10] -0.024

TET1 (UniProt Q8NFU7)
inactive: [1] 0.225 | [2] -0.023 | [3] -0.047 | [4] 0.313 | [5] -0.091 | [6] -0.582 | [7] -0.056 | [8] 0.083 | [9] 0.048 | [10] -0.195

TFRC (UniProt P02786)
inactive: [1] 0.033 | [2] -0.02 | [3] 0 | [4] -0.006 | [5] -0.013 | [6] 0.003 | [7] -0.006 | [8] -0.003 | [9] -0.019 | [10] 0.019

TERF2IP (UniProt Q9NYB0)
inactive: [1] 0.012 | [2] 0.013 | [3] 0.018 | [4] 0.009 | [5] 0.005 | [6] 0.024 | [7] -0.012 | [8] 0.011 | [9] -0.017 | [10] -0.003

TAMM41 isoform 3 (UniProt Q96BW9)
inactive: [1] -0.032 | [2] 0.016 | [3] 0.04 | [4] 0.005 | [5] -0.018 | [6] 0.056 | [7] -0.008 | [8] 0.069 | [9] -0.047 | [10] -0.005

TFAM (UniProt Q00059)
inactive: [1] 0.003 | [2] -0.038 | [3] -0.003 | [4] 0.021 | [5] 0.016 | [6] 0.074 | [7] 0.051 | [8] -0.007 | [9] 0 | [10] 0.001

2 consecutive records from above, for reference:
TEPSIN, A0A1B0GV70
inactive: [1] 0.03 | [2] 0.019 | [3] -0.008 | [4] 0.094 | [5] -0.005 | [6] 0.099 | [7] -0.129 | [8] -0.045 | [9] 0.012 | [10] 0.062

TES (UniProt Q9UGI8)
inactive: [1] 0.011 | [2] -0.005 | [3] 0.023 | [4] 0.017 | [5] -0.001 | [6] 0.02 | [7] 0.011 | [8] -0.026 | [9] 0.001 | [10] -0.008

Next results:

TEX2 isoform 2 (UniProt Q8IWB9)
inactive: [1] -0.012 | [2] -0.002 | [3] 0.018 | [4] 0.03 | [5] 0.009 | [6] -0.017 | [7] -0.092 | [8] -0.021 | [9] 0.056 | [10] -0.022

TARSL2 (UniProt A2RTX5)
inactive: [1] 0.025 | [2] 0.056 | [3] -0.056 | [4] 0.034 | [5] 0.013 | [6] -0.068 | [7] -0.016 | [8] -0.008 | [9] 0.012 | [10] -0.016

— the supplement of paper PMC10849652
